These are yes or no findings as the source states them, for the method shown. In cells and extracts the contact can be indirect. Some results given as binding are weak or reduced against the parent protein; the word gives no strength. For some of these results: Sequences can lack the tags named with a protein. Blank lines part the entries; values can stand above or below the molecule they belong to.
Legend:
SIRT4‐HA (human) = biological target: T1, SIRT4‐HA (human) (UniProt Q9Y6E7); assay: co-IP; 293FT (legend: HEK293T) cells co‐transfected with SIRT4‐HA and ENO1‐FLAG; lysis in 1% NP‐40 buffer (50 mM Tris‐HCl pH 7.4, 150 mM NaCl, 5 mM EDTA); Anti‐FLAG or Anti‐HA Affinity Gel for 4–6 h at 4 °C; Western blot
T1 sequence: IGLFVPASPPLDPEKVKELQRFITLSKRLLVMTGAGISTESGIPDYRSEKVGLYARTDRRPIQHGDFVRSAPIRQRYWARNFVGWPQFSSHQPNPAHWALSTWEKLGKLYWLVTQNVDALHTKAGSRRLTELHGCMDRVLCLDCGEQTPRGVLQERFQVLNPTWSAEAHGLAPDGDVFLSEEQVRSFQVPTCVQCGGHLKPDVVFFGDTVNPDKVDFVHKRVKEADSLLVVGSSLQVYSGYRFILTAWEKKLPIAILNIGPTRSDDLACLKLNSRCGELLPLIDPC

By UniProt entry, the sequences of proteins in these tests, tags left out.
UniProt P06733: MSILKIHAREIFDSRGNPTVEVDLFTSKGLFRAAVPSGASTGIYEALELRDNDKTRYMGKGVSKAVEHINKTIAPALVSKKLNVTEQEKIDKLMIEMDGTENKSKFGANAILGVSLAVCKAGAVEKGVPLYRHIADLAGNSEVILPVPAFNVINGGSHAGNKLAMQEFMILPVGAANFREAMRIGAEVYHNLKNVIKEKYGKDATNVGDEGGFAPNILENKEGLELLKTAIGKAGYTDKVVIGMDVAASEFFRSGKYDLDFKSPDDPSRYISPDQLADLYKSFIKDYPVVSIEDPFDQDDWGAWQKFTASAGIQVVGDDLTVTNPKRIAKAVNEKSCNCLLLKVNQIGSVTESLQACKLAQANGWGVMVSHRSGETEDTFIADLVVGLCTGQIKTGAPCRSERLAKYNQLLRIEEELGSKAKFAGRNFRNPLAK

[1] = biological target: T2, SIRT4, endogenous in PANC‐1 (human (endogenous in PANC‐1)) (UniProt Q9Y6E7); assay: co-IP; endogenous proteins in PANC‐1 extracts; 5 µg antibody against SIRT4 or ENO1, or control IgG, on Protein A/G Sepharose; overnight at 4 °C; immunoblot
T2 sequence: T1 sequence

ENO1‐FLAG = ENO1‐FLAG (UniProt P06733); assay: co-IP; 293FT (legend: HEK293T) cells co‐transfected with SIRT4‐HA and ENO1‐FLAG; lysis in 1% NP‐40 buffer (50 mM Tris‐HCl pH 7.4, 150 mM NaCl, 5 mM EDTA); Anti‐FLAG or Anti‐HA Affinity Gel for 4–6 h at 4 °C; Western blot
[2] = biological target: Enolase 1 (ENO1), endogenous in PANC‐1 (human (endogenous in PANC‐1)) (UniProt P06733); assay: co-IP; endogenous proteins in PANC‐1 extracts; 5 µg antibody against SIRT4 or ENO1, or control IgG, on Protein A/G Sepharose; overnight at 4 °C; immunoblot

Molecule: Enolase 1 (ENO1), endogenous in PANC‐1 (from UniProt P06733 1-434) (enzyme)
- binding [1]: binds

B2: SIRT4, endogenous in PANC‐1 (enzyme, UniProt Q9Y6E7 29-314)
chain: T1 sequence
- binding [2]: binds

More lines, now with the values ahead:

- binding (SIRT4‐HA (human)): binds
Molecule: ENO1‐FLAG (from UniProt P06733 1-434) (enzyme)

- binding (ENO1‐FLAG): binds
B1: SIRT4‐HA (enzyme, UniProt Q9Y6E7 29-314)
chain: T1 sequence
